# Structures can show the parent of a compound that is named as a salt. The list shows a part of the results. Small differences around the control level are noise.
# Columns and labels:
# Conditions in all cases: 5 µM; treatment: days 7-14 after plating, readout day 21
# [1] = system: hPSC-derived cortical neurons (WA09); test: nucleus area z-score vs screen plate; higher = larger nuclei (more mature)
# [2] = system: hPSC-derived cortical neurons (WA09); test: total neurite length per nucleus (MAP2) z-score; higher = more neurite growth
# [3] = system: hPSC-derived cortical neurons (WA09); test: nucleus roundness z-score vs screen plate; higher = rounder nuclei (more mature)
# [4] = system: hPSC-derived cortical neurons (WA09); test: KCl-induced FOS+/EGR-1+ double-positive nuclei fraction z-score (KCl minus unstimulated); higher = stronger activity-induced IEG response
smiles,measurement,setting,value
Cc1ccc(C(=O)Cn2c3c(sc2=N)CCCC3)cc1 [Pifithrin-_ (PFT_)],nucleus area z-score,[1],0.731
same,total neurite length per nucleus (z-score),[2],-0.703
same,nucleus roundness z-score,[3],-0.11
same,KCl-induced FOS+/EGR-1+ double-positive nuclei fraction z-score,[4],0.23
Nc1nc(N)c2nc(-c3cccc(O)c3)cnc2n1,nucleus area z-score,[1],-1.39
same,total neurite length per nucleus (z-score),[2],-0.172
same,nucleus roundness z-score,[3],-0.263
same,KCl-induced FOS+/EGR-1+ double-positive nuclei fraction z-score,[4],-0.169
Nc1nc(-c2nn(Cc3ccccc3F)c3ncccc23)ncc1C1CC1,nucleus area z-score,[1],0.752
same,total neurite length per nucleus (z-score),[2],0.289
same,nucleus roundness z-score,[3],0.792
same,KCl-induced FOS+/EGR-1+ double-positive nuclei fraction z-score,[4],-0.68
CCOC(=O)Nc1cc(-c2ccc(C)c(NS(C)(=O)=O)c2)nn2c(C)nnc12 [Bromosporine],nucleus area z-score,[1],-3.49
same,total neurite length per nucleus (z-score),[2],-1.85
same,nucleus roundness z-score,[3],-2.69
same,KCl-induced FOS+/EGR-1+ double-positive nuclei fraction z-score,[4],-0.0191
CC(COc1ccccc1)N(CCCl)Cc1ccccc1 (centres undefined) [Phenoxybenzamine HCl],nucleus area z-score,[1],0.718
same,total neurite length per nucleus (z-score),[2],0.862
same,nucleus roundness z-score,[3],-0.0278
same,KCl-induced FOS+/EGR-1+ double-positive nuclei fraction z-score,[4],0.5
Cc1cc(Nc2cc(CN3CCOCC3)c3nc(C)c(Cc4ccc(Cl)cc4F)n3n2)n[nH]1,nucleus area z-score,[1],-0.769
same,total neurite length per nucleus (z-score),[2],0.864
same,nucleus roundness z-score,[3],0.229
same,KCl-induced FOS+/EGR-1+ double-positive nuclei fraction z-score,[4],-0.425
CC(C)(C)c1ccc(-c2nc3ccccc3[nH]2)cc1,nucleus area z-score,[1],0.295
same,total neurite length per nucleus (z-score),[2],1.09
same,nucleus roundness z-score,[3],0.17
same,KCl-induced FOS+/EGR-1+ double-positive nuclei fraction z-score,[4],-0.497
CNC(=O)[C@H](Cc1ccccc1)NC(=O)[C@H](CC(C)C)[C@H](CSc1cccs1)C(=O)NO [Batimastat (BB-94)],nucleus area z-score,[1],-0.042
same,total neurite length per nucleus (z-score),[2],-1.25
same,nucleus roundness z-score,[3],-1.18
same,KCl-induced FOS+/EGR-1+ double-positive nuclei fraction z-score,[4],-3.07
Cc1ccc(N(CC2=NCCN2)c2cccc(O)c2)cc1 [Phentolamine Mesylate],nucleus area z-score,[1],0.373
same,total neurite length per nucleus (z-score),[2],0.273
same,nucleus roundness z-score,[3],0.326
same,KCl-induced FOS+/EGR-1+ double-positive nuclei fraction z-score,[4],0.242
COc1nc(N)nc2c1ncn2[C@@H]1O[C@H](CO)[C@@H](O)[C@@H]1O [Nelarabine],nucleus area z-score,[1],0.195
same,total neurite length per nucleus (z-score),[2],2.18
same,nucleus roundness z-score,[3],-0.00755
same,KCl-induced FOS+/EGR-1+ double-positive nuclei fraction z-score,[4],0.819
COc1ccc(-c2cc(=O)c3c(OC)c(OC)c(OC)c(OC)c3o2)cc1 [Tangeretin],nucleus area z-score,[1],0.157
same,total neurite length per nucleus (z-score),[2],0.342
same,nucleus roundness z-score,[3],0.475
same,KCl-induced FOS+/EGR-1+ double-positive nuclei fraction z-score,[4],-0.656

# Two entries picked at random from the list so far, as already listed:
smiles,measurement,setting,value
CC(COc1ccccc1)N(CCCl)Cc1ccccc1 (centres undefined) [Phenoxybenzamine HCl],KCl-induced FOS+/EGR-1+ double-positive nuclei fraction z-score,[4],0.5
Nc1nc(-c2nn(Cc3ccccc3F)c3ncccc23)ncc1C1CC1,KCl-induced FOS+/EGR-1+ double-positive nuclei fraction z-score,[4],-0.68

# — the supplement of paper PMC11348887
